According to US20240158754A1, “REDUCING HIGH MANNOSE GLYCAN PROTEIN EXPRESSION USING GUANOSINE 5'-MONOPHOSPHATE” (MERCK SHARP & DOHME LLC, priority 2021, published 2024):

Experiments:
Format in all cases: cell-based, Chinese hamster
[1] = system: recombinant CHO cell line expressing mAb B; assay: 10-day fed-batch assay with GMP (Example 2); conditions: for High Molecular Weight / Monomer / Total Acidic Charge Variants: values relative to control
Experimental: (§1) Cells were cultured in Merck proprietary chemically defined media in increasing volume to obtain sufficient number of cells for inoculation. For cell lines expressing mAb A and mAb B, cells were seeded at 0.5×10^6 cells per mL into Merck proprietary chemically defined production medium in two 1 L Erlenmeyer flasks at a final volume of 250 mL in each flask. For cell line expressing mAb C, cells were seeded at 1.0×10^6 cells per mL into production medium in two 1 L Erlenmeyer flasks at a final volume of 250 mL in each flask. Cells were incubated at 36.5° C., with agitation at 100 rpm, in presence of 5% CO2, and humidity ≥70%. Merck proprietary chemically defined nutrient feed media were added to all the cultures on day 3, day 6, and day 8. On Day 6, cells from both 1 L flasks for each cell line were pooled and then aliquoted in 125 mL Erlenmeyer flasks with 30 mL working volume, respectively. A 200 mM stock solution of GMP was prepared by adding Guanosine 5′-monophosphate disodium salt hydrate (Sigma Aldrich, St. Louis, MO) in purified water. After the cells were aliquoted in separate 125 mL test flasks on day 6, GMP was added to the cultures at final concentration of 1 mM or 10 mM. No change in pH and osmolality was observed as a result of the GMP addition. A control condition with no added GMP was also created for each cell line. All conditions were run with two replicates. All cultures were harvested on day 10.
(§2) Cell culture parameters were analyzed on day 0, 3, 6, 8 and 10, and the corresponding spent medium supernatants were evaluated for antibody titer, charge variants, and glycan analysis on day 10 to assess the effect of GMP on cell growth, viability, titer, and glycan profile of the recombinant antibodies. Cell density and viability were measured using the trypan blue exclusion method with Cedex Bio Analyzer (Roche Diagnostics GmbH, Mannheim, Germany). Culture pH was measured using ABL80 Blood/Gas Analyzer (Radiometer, Denmark). Cell culture metabolites were measured using RX Imola (Randox Laboratories Ltd. Crumlin, UK) and osmolality was measured using a micro-Osmometer 2020 (Advanced Instruments, Norwood, MA).
(§3) Antibody titer was analyzed using a mAb-specific reverse-phase high-performance liquid chromatography (HPLC) or analytical Protein A HPLC method. Multiple product quality attributes were analyzed on harvested cell-culture fluid (HCCF) after a Protein A chromatography step. Analysis of HMW species was performed by size-exclusion chromatography, analysis of charge variants was performed by ion exchange chromatography, and analysis of N-glycan was performed by ultra-performance liquid chromatography (UPLC) with 2-aminobenzamide (2-AB) labeling.

[2] = system: recombinant CHO cell line expressing mAb C; assay: 10-day fed-batch assay with GMP (Example 2); conditions: for High Molecular Weight / Main Peak / Total Acidic Charge Variants: values relative to control
Experimental: as §1, §2, §3

[3] = system: recombinant CHO cell lines expressing monoclonal antibodies (mAb A, mAb B, or mAb C); assay: 10-day fed-batch assay with GMP (Example 2), statements for all cell lines
Experimental: as §1, with “After the cells were aliquoted in separate 125 mL test flasks on day 6, GMP was added to the cultures at final concentration of 1 mM or 10 mM. No change in pH and osmolality was observed as a result of the GMP addition. A control condition with no added GMP was also created for each cell line. All conditions were run with two replicates. All cultures were harvested on day 10.” left out
as §2
Antibody titer was analyzed using a mAb-specific reverse-phase high-performance liquid chromatography (HPLC) or analytical Protein A HPLC method. Multiple product quality attributes were analyzed on harvested cell-culture fluid (HCCF) after a Protein A chromatography step. […]

Compound: Nc1nc2c(ncn2[C@@H]2O[C@H](COP(=O)(O)O)[C@@H](O)[C@H]2O)c(=O)[nH]1 [Component 6, Guanosine 5′-monophosphate]
- Ammonia ([1]; GMP 1 mM): 3.2 mM
- Lactate ([1]; GMP 1 mM): 0.9 g/L
- High Molecular Weight ([1]; GMP 1 mM): 1.06%
- Monomer ([1]; GMP 1 mM): 1.0%
- Total Acidic Charge Variants ([1]; GMP 1 mM): 0.98%
- Ammonia ([1]; GMP 10 mM): 4.2 mM
- Lactate ([1]; GMP 10 mM): 1.0 g/L
- High Molecular Weight ([1]; GMP 10 mM): 1.65%
- Monomer ([1]; GMP 10 mM): 0.99%
- Total Acidic Charge Variants ([1]; GMP 10 mM): 0.97%
- Ammonia ([2]; GMP 1 mM): 6.5 mM
- High Molecular Weight ([2]; GMP 1 mM): 0.98%
- Main Peak ([2]; GMP 1 mM): 0.99%
- Total Acidic Charge Variants ([2]; GMP 1 mM): 0.99%
- Ammonia ([2]; GMP 10 mM): 4.5 mM
- High Molecular Weight ([2]; GMP 10 mM): 0.93%
- Main Peak ([2]; GMP 10 mM): 1.00%
- Total Acidic Charge Variants ([2]; GMP 10 mM): 1.06%
- impact on product yield [3]: no negative impacts
- change in pH and osmolality on addition ([3]; GMP 1 mM or 10 mM added day 6): No change
- Titer and other product quality attributes (such as charge variants and aggregation) ([3]; all cell lines): largely unaffected
